Source: PMC7605433

Target: T1, Myc-RNF181 (UniProt Q9P0P0)
T1 sequence: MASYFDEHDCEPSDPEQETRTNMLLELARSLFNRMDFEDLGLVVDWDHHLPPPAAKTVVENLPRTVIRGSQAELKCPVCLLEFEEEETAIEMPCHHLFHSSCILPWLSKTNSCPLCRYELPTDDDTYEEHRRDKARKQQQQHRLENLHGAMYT
Test: co-IP; HEK293 cells transfected with Myc-RNF181 and HA-ERα full length or mutants, 10 uM MG132 for 6 h, NP-40 lysis buffer; IP with Myc antibody, detection with HA antibody

binding: binds
Substance: HA-ERα ΔAF2 + ΔDBD (domain or fragment)

No constants are given. Whether binding was seen depends on the method and setting. Binding seen in cells or lysates may run through a third protein. A result given as binding can be weak or reduced; the word gives no strength. Tags and fused reporters may be left off the sequences shown.
